Assay results from patent publication US12458688B2, “Epitopes” (Scancell Limited, priority 2018, dated 2025).
Some of these results come from one statement about several compounds together.

Target: T1, HLA-DP4 (Homo sapiens, UniProt P04440+P20036)
T1 sequence (P20036 29-260): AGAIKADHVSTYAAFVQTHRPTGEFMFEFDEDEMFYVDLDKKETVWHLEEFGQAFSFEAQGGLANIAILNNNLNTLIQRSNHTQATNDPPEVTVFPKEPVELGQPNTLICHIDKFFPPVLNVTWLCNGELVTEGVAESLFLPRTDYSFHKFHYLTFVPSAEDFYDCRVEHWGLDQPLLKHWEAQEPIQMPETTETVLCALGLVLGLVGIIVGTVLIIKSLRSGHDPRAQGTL
T1 sequence (P04440 30-258): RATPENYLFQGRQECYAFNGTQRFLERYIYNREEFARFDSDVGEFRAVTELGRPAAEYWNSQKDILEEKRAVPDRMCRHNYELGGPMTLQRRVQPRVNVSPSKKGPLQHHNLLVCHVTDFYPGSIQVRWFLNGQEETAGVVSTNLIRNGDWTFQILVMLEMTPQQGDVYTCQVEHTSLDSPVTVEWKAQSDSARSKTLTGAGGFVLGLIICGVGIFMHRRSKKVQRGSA
Assay: DP4 competition assay with biotinylated Hep B peptide
Conditions: inhibition of biotinylated Hep B binding to HLA-DP4; 5 fold excess test peptide, equal amount for unlabelled Hep B
Method: 2×T175 gave 2.5×10^7 B16 HHDII/DP4 (B16F1 β2M H2Ab1 dKO A35 HHDII/DP4 H7/2E9/F9 p14) cells. This was enough for 5 preps using the following protocol with Mem-PER™ Plus Membrane Protein Extraction Kit (thermo-scientific cat #89842).
5×10^6 cells were resuspended in the growth media by scraping the cells off the surface of the plate with a cell scraper and then centrifuged at 300 g for 5 mins. The cell pellet was washed with 3 ml of Cell Wash Solution and centrifuged at 300 g for 5 mins. The supernatant was removed and discarded. The cells were resuspended in 1.5 ml of Cell Wash Solution and transfer to a 2 ml centrifuge tube and centrifuged at 300 g for 5 mins. The supernatant was discarded. 0.75 ml of permeabilization buffer was added to the cell pellet and vortexed briefly to obtain a homogeneous cell suspension and incubated for 10 mins at 4° C. with constant mixing. The permeabilized cells were centrifuge for 15 mins at 16,000g before carefully removing the supernatant containing cytosolic proteins and transfering to a new tube. […]
Lysate/peptide mix was added to the plates at 100 μl/well and incubated for 4 hrs at room temperature. […] The reaction was stopped with 50 μl of 2N H2SO4 and plates read plate at 450 nm. […]

## hcit-DGADFA-hcit-WRCVL-hcit-IGEH [Aldolase A 140-157 Hcit]
  % inhibition: > 60%
